In one assay the target is T1, Flag-tagged Kif7 (UniProt B7ZNG0).
T1 sequence: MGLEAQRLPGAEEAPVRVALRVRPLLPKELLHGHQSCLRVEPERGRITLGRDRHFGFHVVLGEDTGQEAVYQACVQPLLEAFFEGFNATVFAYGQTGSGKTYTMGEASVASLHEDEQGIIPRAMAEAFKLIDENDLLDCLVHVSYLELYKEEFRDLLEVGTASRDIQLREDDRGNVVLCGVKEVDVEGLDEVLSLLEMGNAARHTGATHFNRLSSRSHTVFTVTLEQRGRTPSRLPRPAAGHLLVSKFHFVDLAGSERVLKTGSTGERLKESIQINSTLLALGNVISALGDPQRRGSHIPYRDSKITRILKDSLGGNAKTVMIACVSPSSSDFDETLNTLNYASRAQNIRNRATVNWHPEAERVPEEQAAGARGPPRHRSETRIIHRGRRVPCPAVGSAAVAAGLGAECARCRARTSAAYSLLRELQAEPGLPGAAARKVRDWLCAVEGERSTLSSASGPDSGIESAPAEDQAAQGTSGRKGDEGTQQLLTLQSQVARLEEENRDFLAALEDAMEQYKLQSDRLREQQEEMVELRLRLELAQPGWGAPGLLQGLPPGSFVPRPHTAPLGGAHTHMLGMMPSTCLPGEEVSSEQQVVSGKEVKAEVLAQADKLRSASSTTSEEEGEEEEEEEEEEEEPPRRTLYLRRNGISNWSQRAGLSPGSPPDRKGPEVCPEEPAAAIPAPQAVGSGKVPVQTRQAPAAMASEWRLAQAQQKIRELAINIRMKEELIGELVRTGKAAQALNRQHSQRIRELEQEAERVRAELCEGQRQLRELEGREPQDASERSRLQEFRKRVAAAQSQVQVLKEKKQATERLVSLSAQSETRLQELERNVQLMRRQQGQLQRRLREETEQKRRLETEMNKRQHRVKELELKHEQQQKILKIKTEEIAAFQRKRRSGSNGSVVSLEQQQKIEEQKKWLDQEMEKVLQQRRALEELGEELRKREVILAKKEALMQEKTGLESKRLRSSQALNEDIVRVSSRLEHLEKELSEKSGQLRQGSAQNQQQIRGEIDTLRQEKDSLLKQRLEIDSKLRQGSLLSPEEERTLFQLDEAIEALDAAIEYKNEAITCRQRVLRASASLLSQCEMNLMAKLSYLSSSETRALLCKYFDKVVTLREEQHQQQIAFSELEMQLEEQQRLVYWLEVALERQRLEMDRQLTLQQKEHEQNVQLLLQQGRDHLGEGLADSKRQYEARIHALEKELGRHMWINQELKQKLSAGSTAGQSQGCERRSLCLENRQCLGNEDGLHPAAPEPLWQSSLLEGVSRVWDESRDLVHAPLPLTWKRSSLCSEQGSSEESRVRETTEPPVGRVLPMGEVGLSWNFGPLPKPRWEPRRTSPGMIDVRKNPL
In words: co-IP; Myc- and Flag-tagged proteins overexpressed together in HEK293 cells; lysates in Dignam buffer C; IP for Flag or Myc, immunoblot for Tbx3, Kif7 or Gli3.

For assay [1], the target named is T2, Suppressor of fused (Sufu), endogenous mouse protein (mouse (endogenous in E10.5 embryos)) (UniProt Q9Z0P7).
T2 sequence: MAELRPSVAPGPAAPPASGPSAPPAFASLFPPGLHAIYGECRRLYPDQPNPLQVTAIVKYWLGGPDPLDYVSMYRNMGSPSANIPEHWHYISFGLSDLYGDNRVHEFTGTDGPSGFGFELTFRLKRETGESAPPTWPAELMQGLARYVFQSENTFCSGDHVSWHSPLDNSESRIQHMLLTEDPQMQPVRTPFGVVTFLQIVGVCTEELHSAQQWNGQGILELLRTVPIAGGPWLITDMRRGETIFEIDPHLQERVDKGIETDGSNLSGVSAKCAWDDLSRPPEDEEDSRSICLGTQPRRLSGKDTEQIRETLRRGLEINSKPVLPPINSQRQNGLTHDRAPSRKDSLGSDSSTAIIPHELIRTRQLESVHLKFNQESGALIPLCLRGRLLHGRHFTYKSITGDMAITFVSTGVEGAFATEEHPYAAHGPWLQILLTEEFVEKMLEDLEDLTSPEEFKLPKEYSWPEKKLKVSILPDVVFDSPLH
In words: co-IP; endogenous proteins; E10.5 whole mouse embryo lysates in Dignam buffer C, control (wt) embryos; Sufu-Gli3, Sufu-Kif7 and Tbx3-Spop also assayed in Tbx3 null (Tbx3 delta-fl/delta-fl, ko) embryos, where less Sufu-Gli3 and Sufu-Kif7 co-precipitated; 5-10 ug antibody overnight at 4 C, Protein-G Dynal beads, immunoblot, densitometry.

For assay [2], the target named is T3, Kif7, endogenous mouse protein (mouse (endogenous in E10.5 embryos)) (UniProt B7ZNG0).
T3 sequence: T1 sequence
In words: co-IP; as a4, but lysates of Tbx3 null (Tbx3 delta-fl/delta-fl, ko) E10.5 embryos; Kif7-Gli3 co-precipitate compared with control (wt) embryos by densitometry.

Assay [3] deals with Gli3, endogenous mouse protein as precipitated by anti-Gli3 (Gli3FL and Gli3R not told apart) (mouse (endogenous in E10.5 embryos)) (UniProt Q61602). The assay is described as above.

These are yes or no findings as the source states them, for the method shown. In cells and extracts the contact can be indirect. Some binding calls cover weakened binding; strength is not graded here. For some assays here: Sequences can lack the tags named with a protein.

B1: Myc-tagged full length TBX3 (protein, UniProt P70324 1-741)
chain: MSLSMRDPVIPGTSMAYHPFLPHRAPDFAMSAVLGHQPPFFPALTLPPNGAAALSLPGALAKPIMDQLVGAAETGIPFSSLGPQAHLRPLKTMEPEEDVEDDPKVHLEAKELWDQFHKRGTEMVITKSGRRMFPPFKVRCSGLDKKAKYILLMDIIAADDCRYKFHNSRWMVAGKADPEMPKRMYIHPDSPATGEQWMSKVVTFHKLKLTNNISDKHGFTLAFPSDHATWQGNYSFGTQTILNSMHKYQPRFHIVRANDILKLPYSTFRTYLFPETEFIAVTAYQNDKITQLKIDNNPFAKGFRDTGNGRREKRKQLTLQSMRVFEERHKKETSDESSSEQAAFNCFAQASSPAVSIVGTSNLKDLCPSEAESDAEAESKEEHGPEACDAAKISTTTAEEPGRDKGSPATRAQLFPAEPSRARDTARLDKASPDSRHSPATISSSTRVPGADERRSPGREGPVATKVDEARAIPAKDAFAPLSVQTDATAHLAQGPLPGLGFAPGLAGQQFFNGHPLFLHPGQFAMGGAFSSMAAGMGPLLATVSGASTGVSGLESTAMASAAAAQGLSGASAATLPFHLQQHVLASQGLAMSPFGSLFPYPYTYMAAAAAASTAAASSSVHRHPFLNLNSMRPRLRYSPYSIPVPVPDSSSLLATALPSMASAAGPLDGKAAALAASPASVAVDSGSELNSRSSTLSSGSVSLSPKLCSEKEAATSELQSIQRLVSGLEAKPDRSCSGSP
For the molecule B1, the binding entry with Flag-tagged Kif7 was “binds”.

B2: full length Gli3 (Gli3FL), endogenous mouse protein (natural protein, mouse (endogenous in E10.5 embryos), UniProt Q61602 1-1583, looked up)
chain: MEAQAHSSTATERKKAENSIGKCPTRTDVSEKAVASSTTSNEDESPGQIYHRERRNAITMQPQSVQGLNKISEEPSTSSDERASLIKKEIHGSLPHLAEPSLPYRGTVFAMDPRNGYMEPHYHPPHLFPAFHPPVPIDARHHEGRYHYDPSPIPPLHVPSALSSSPTYPDLPFIRISPHRNPTAASESPFSPPHPYINPYMDYIRSLHSSPSLSMISAARGLSPTDAPHAGVSPAEYYHQMALLTGQRSPYADILPSAATAGAGAIHMEYLHAMDSTRFPSPRLSARPSRKRTLSISPLSDHSFDLQTMIRTSPNSLVTILNNSRSSSSASGSYGHLSASAISPALSFTYPSAPVSLHMHQQILSRQQSLGSAFGHSPPLIHPAPTFPTQRPIPGIPTVLNPVQVSSGPSESSQSKPTSESAVSSTGDPMHNKRSKIKPDEDLPSPGSRGQQEQPEGTTLVKEEADKDESKQEPEVIYETNCHWEGCTREFDTQDQLVHHINNDHIHGEKKEFVCRWLDCSREQKPFKAQYMLVVHMRRHTGEKPHKCTFEGCTKAYSRLENLKTHLRSHTGEKPYVCEHEGCNKAFSNASDRAKHQNRTHSNEKPYVCKIPGCTKRYTDPSSLRKHVKTVHGPEAHVTKKQRGDMHPRPPPPRDSGSHSQSRSPGRPTQGAFGEQKELSNTTSKREECLQVKTVKAEKPMTSQPSPGGQSSCSSQQSPISNYSNSGLELPLTDGGSVADLSAIDETPIMDSTISTATTALALQARRNPAGTKWMEHIKLERLKQVNGMFPRLNPILPSKAPAVSPLIGNGTQSNNNYSSGGPGTLLPSRSDLSGVDFTVLNTLNRRDSNTSTISSAYLSSRRSSGISPCFSSRRSSEASQAEGRPQNVSVADSYDPISTDASRRSSEASQGDGLPSLLSLTPVQQYRLKAKYAAATGGPPPTPLPHMERLSLKTKMALLGEGRDSGVTLPPVHPPRRCSDGGGHTYRGRHLMPHDALANSVRRASDPVRTVSENMSLARVQRFSSLNSFNPPNLPPSVEKRSLVLQNYTRQESSQPRYFQASPCPPSITENVALEALTMDADANLNDEDLLPDDVVQYLNSQNQTGYGQQLQSGISEDSKVAHEPEDLDLAGLPDSHVGQEYPALEQPCSEGSKTDLPIQWNEVSSGTSDLSSSKLKCGQQRPSAQQPRGFGLYNNMVVHPHNLWKVGTGPAGGYQTLGENSSTYNGPEHFAIHSGDGLGTNGNTFHEQPFKTQQYGSQLNRQPLTSSALDHACGTGIQGSKLKGNSLQENGGLLDFSLSVAPNELAGNTVNGMQTQDQMGQGYIAHQLLSGSMQHQGPSRPGQQVLGQVGATSHINIYQGTESCLPGTQDNSSQPSSMAAIRGYQPCASYGGNRRQAMPRGNLTLQQGQLSDMSQSSRVNSIKMEAQGQSQQLCSTVQNYSGQFYDQTMGFSQQDRKAGSFSLSDANCLLQGNGTENSELLSPGANQVTSTVDSFESHDLEGVQIDFDAIIDDGDHTSLMSGALSPSIIQNLSHSSSRLTTPRASLPFPSLSMGTTNMAIGDMSSLLTSLAEESKFLAVMQ
notes: Gli3 transcription factor, mouse, the unprocessed full length form (Gli3FL band on anti-Gli3 immunoblots); also called GliFL; source: endogenous, E10.5 mouse forelimb bud lysate or E10.5 whole embryo lysate (control or Tbx3 null)
Turning to B2, the binding entry in assay [1] and in assay [2] was “binds” in each case.

B3: Kif7, endogenous mouse protein (natural protein, mouse (endogenous in E10.5 embryos), UniProt B7ZNG0 1-1348, looked up)
chain: T1 sequence
notes: Kif7, ciliary kinesin family protein, mouse, endogenous in E10.5 forelimb buds and whole embryos; source: endogenous, E10.5 mouse forelimb bud lysate or E10.5 whole embryo lysate (control or Tbx3 null)
Turning to B3, the binding result in assay [1] and in assay [3] was “binds” each time.

The values above are taken from publication PMC4829432, “T-box3 is a ciliary protein and regulates stability of the Gli3 transcription factor to control digit number” (eLife, 2016).
